{"source": "patent US9107836B2", "about": "“Formulation” (HOFFMANN-LA ROCHE INC., priority 2010, dated 2015)", "origin": "cited, not measured here", "key": {"LDL cholesterol [1]": {"system": "LDL cholesterol", "conditions": "in rabbits; Okamoto et al."}, "atherosclerosis": {"system": "atherosclerosis", "conditions": "in rabbits; Okamoto et al."}, "plasma HDL cholesterol [2]": {"system": "plasma HDL cholesterol", "conditions": "in rabbits; Shinkai, Kobayashi, Okamoto"}, "plasma HDL cholesterol [3]": {"system": "plasma HDL cholesterol", "conditions": "in humans; de Grooth et al."}, "LDL cholesterol [4]": {"system": "LDL cholesterol", "conditions": "in humans; de Grooth et al."}}, "note": "Where two headings read alike, the source gives them in different places. For at least one compound, name, drawing or mass did not settle the structure.", "data": [{"smiles": "CCC(CC)CC1(C(=O)Nc2ccccc2SC(=O)C(C)C)CCCCC1", "note": "[S-[2-([[1-(2-ethylbutyl)-cyclohexyl]-carbonyl]amino)phenyl]2-methylpropanethioate]", "values": [{"measurement": "effect on LDL cholesterol", "setting": "LDL cholesterol [1]", "result": "decrease LDL cholesterol"}, {"measurement": "progression of atherosclerosis", "setting": "atherosclerosis", "result": "inhibits the progression of atherosclerosis"}, {"measurement": "effect on plasma HDL cholesterol", "setting": "plasma HDL cholesterol [2]", "result": "increase plasma HDL cholesterol"}, {"measurement": "effect on plasma HDL cholesterol", "setting": "plasma HDL cholesterol [3]", "result": "increase plasma HDL cholesterol"}, {"measurement": "effect on LDL cholesterol", "setting": "LDL cholesterol [4]", "result": "decrease LDL cholesterol"}]}]}
